Source: paper doi:10.1101/2024.10.13.617954
These are yes or no findings as the source states them, for the method shown. In cells and extracts the contact can be indirect. Some entries that bind do so weakly or less than the wild type. For some assays here: Where a sequence is shown, tags or fusion partners need not be part of it. One block for each binder: values may come before it.

Protein sequences, listed by entry. Tags and fused reporters are not part of them.
UniProt P92939: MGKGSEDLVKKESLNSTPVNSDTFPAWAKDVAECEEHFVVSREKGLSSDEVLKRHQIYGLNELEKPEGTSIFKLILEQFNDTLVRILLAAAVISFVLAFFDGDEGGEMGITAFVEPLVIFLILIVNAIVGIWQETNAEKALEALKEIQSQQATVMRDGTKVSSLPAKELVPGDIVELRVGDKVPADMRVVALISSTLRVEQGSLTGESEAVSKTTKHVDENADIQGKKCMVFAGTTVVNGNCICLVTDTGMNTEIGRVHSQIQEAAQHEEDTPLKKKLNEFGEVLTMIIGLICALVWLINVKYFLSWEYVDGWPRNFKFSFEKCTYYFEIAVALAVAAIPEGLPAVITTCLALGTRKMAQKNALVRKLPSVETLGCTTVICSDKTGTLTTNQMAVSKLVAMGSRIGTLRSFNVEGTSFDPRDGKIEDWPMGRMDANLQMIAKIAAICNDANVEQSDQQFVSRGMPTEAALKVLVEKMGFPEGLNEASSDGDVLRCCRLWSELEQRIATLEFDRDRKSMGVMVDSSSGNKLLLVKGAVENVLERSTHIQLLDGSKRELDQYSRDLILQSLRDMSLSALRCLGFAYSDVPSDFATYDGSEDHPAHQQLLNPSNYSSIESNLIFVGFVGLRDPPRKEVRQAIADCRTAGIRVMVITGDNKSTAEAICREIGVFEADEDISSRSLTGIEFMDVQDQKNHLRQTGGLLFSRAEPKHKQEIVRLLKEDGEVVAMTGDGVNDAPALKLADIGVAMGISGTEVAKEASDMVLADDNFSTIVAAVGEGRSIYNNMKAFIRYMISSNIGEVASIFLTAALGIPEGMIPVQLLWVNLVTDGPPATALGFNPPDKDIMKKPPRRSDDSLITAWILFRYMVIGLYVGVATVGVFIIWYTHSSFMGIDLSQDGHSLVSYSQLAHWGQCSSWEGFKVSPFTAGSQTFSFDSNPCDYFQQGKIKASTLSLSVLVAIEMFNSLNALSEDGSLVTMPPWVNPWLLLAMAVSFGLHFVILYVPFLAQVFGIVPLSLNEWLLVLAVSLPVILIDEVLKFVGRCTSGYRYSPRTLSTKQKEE

Key:
[1] = biological target: ECA1-cYFP (Arabidopsis thaliana) (UniProt P92939); test: split reporter
[2] = biological target: ECA1-HA (Arabidopsis thaliana) (UniProt P92939); test: co-IP
[3] = biological target: ECA1-GFP (Arabidopsis thaliana) (UniProt P92939); test: FRET or BRET

binding [1]: binds
B1: CPK32-nYFP (enzyme, UniProt Q6NLQ6 1-538)
chain: MGNCCGTAGSLAQNDNKPKKGRKKQNPFSIDYGLHHGGGDGGGRPLKLIVLNDPTGREIESKYTLGRELGRGEFGVTYLCTDKETDDVFACKSILKKKLRTAVDIEDVRREVEIMRHMPEHPNVVTLKETYEDEHAVHLVMELCEGGELFDRIVARGHYTERAAAAVTKTIMEVVQVCHKHGVMHRDLKPENFLFGNKKETAPLKAIDFGLSVFFKPGERFNEIVGSPYYMAPEVLKRNYGPEVDIWSAGVILYILLCGVPPFWAETEQGVAQAIIRSVLDFRRDPWPKVSENAKDLIRKMLDPDQKRRLTAQQVLDHPWLQNAKTAPNVSLGETVRARLKQFTVMNKLKKRALRVIAEHLSDEEASGIREGFQIMDTSQRGKINIDELKIGLQKLGHAIPQDDLQILMDAGDIDRDGYLDCDEFIAISVHLRKMGNDEHLKKAFAFFDQNNNGYIEIEELREALSDELGTSEEVVDAIIRDVDTDKDGRISYEEFVTMMKTGTDWRKASRQYSRERFNSISLKLMQDASLQVNGDTR

binding [1]: binds
B5: CPK12-nYFP (enzyme, UniProt Q42396 1-490)
chain: MANKPRTRWVLPYKTKNVEDNYFLGQVLGQGQFGTTFLCTHKQTGQKLACKSIPKRKLLCQEDYDDVLREIQIMHHLSEYPNVVRIESAYEDTKNVHLVMELCEGGELFDRIVKRGHYSEREAAKLIKTIVGVVEACHSLGVVHRDLKPENFLFSSSDEDASLKSTDFGLSVFCTPGEAFSELVGSAYYVAPEVLHKHYGPECDVWSAGVILYILLCGFPPFWAESEIGIFRKILQGKLEFEINPWPSISESAKDLIKKMLESNPKKRLTAHQVLCHPWIVDDKVAPDKPLDCAVVSRLKKFSAMNKLKKMALRVIAERLSEEEIGGLKELFKMIDTDKSGTITFEELKDSMRRVGSELMESEIQELLRAADVDESGTIDYGEFLAATIHLNKLEREENLVAAFSFFDKDASGYITIEELQQAWKEFGINDSNLDEMIKDIDQDNDGQIDYGEFVAMMRKGNGTGGGIGRRTMRNSLNFGTTLPDESMNV

More lines, now with the values behind:

B2: CPK2-nYFP (enzyme, UniProt Q38870 1-646)
chain: MGNACVGPNISGNGFLQTVTAAMWRPRIGAEQASSSSHGNGQVSKEAASEPATDQVQNKPPEPITMPSSKTNPETKLKPDLEIQPEEKKEKVLAEETKQKVVPEESKQEVPPEESKREVVVQPESAKPETKSESKPETTKPETTSETKPETKAEPQKPKHMRRVSSAGLRTESVLQRKTENFKEFYSLGRKLGQGQFGTTFLCLEKGTGNEYACKSISKRKLLTDEDVEDVRREIQIMHHLAGHPNVISIKGAYEDVVAVHLVMELCSGGELFDRIIQRGHYTERKAAELARTIVGVLEACHSLGVMHRDLKPENFLFVSREEDSLLKTIDFGLSMFFKPDEVFTDVVGSPYYVAPEVLRKRYGPESDVWSAGVIVYILLSGVPPFWAETEQGIFEQVLHGDLDFSSDPWPSISESAKDLVRKMLVRDPKRRLTAHQVLCHPWVQIDGVAPDKPLDSAVLSRMKQFSAMNKFKKMALRVIAESLSEEEIAGLKQMFKMIDADNSGQITFEELKAGLKRVGANLKESEILDLMQAADVDNSGTIDYKEFIAATLHLNKIEREDHLFAAFSYFDKDESGFITPDELQQACEEFGVEDARIEEMMRDVDQDKDGRIDYNEFVAMMQKGSIMGGPVKMGLENSISISLKH
binding [1]: binds

B3: CPK2-GFP (enzyme, UniProt Q38870 1-646)
chain: B2 chain
binding [2]: binds

B4: CPK2-RFP (enzyme, UniProt Q38870 1-646)
chain: B2 chain
binding [3]: binds
